Some of the results follow.
These sequences were tested against OsWRKY34 (Oryza sativa, UniProt Q0JBA9 1-250) (assay: protein-binding microarray (RPBM); PBS, 2% BSA, 51.3 ng/ul salmon testes DNA, 50 uM zinc acetate, 200 nM TF, 25 C, 1 h; high values mean tight binding). Conditions: protein: recombinant; tags: N-terminal polyhistidine and DsRed monomer fusion (pET32a); label: CyDye5-dUTP incorporated in the synthesized complementary strand; 3' TTTTT single-stranded linker to array surface; dsDNA, one strand shown.
Procedure, shortened: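 Polyhistidine-tagged DsRed fusions of transcription factors, joined at the N-terminus, were expressed in E. coli BL21-CodonPlus and isolated on Ni–NTA. They were incubated at 200 nM for 1 h at 25 °C on a custom Agilent array, double-stranded and BSA-blocked, in PBS with 2% BSA, salmon testes DNA and 50 µM zinc acetate. The binding signal is per-feature fluorescence intensity (arbitrary units) read on an Axon 4000B scanner after washing.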

Sequences of proteins named here, by UniProt entry; tags and fusion partners are left off.
UniProt Q0JBA9, entry or part of it: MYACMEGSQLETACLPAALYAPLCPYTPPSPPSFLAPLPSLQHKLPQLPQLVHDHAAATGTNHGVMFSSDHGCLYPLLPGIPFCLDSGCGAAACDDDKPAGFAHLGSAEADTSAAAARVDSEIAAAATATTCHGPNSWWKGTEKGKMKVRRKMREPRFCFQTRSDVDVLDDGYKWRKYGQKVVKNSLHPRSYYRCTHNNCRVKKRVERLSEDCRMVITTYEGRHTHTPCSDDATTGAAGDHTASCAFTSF

Sequence	binding signal
CGCGCTCGTCCCATCCCATGCCTGCGGCCGTGACCGCGAGCGGAGTCACCTAGTGCAG	8970 fluorescence intensity (a.u.)
TGTCCTTTGCCAGCTTGCACTGATAGTTGCACCTAAACCACGGAGTCACCTAGTGCAG	9150 fluorescence intensity (a.u.)
TCAAACACGTACTAAAAAGTCAACGGTGTCAAACATTTTGCGGAGTCACCTAGTGCAG	15600 fluorescence intensity (a.u.)
GCTCCCACTGATCTCTCTCTCGTCTTCTTCTTCTTTGAGCCGGAGTCACCTAGTGCAG	9240 fluorescence intensity (a.u.)
TCTTCCACTTCTCTCTTTCTCTGTGTAGGGGCAGCAGTGGCGGAGTCACCTAGTGCAG	10800 fluorescence intensity (a.u.)
GCCCCGTTGTTTTCTTATTGAGATGTACAGTAGATTCTACCGGAGTCACCTAGTGCAG	8900 fluorescence intensity (a.u.)
AAAGGTGTTTGTATTTTTCACCGTCTTTTTTGCAGCGCTCCGGAGTCACCTAGTGCAG	9940 fluorescence intensity (a.u.)
ATAACCAACCTTGAGTGTCCGTGCTGCTGCCACCGCCCACCGGAGTCACCTAGTGCAG	9900 fluorescence intensity (a.u.)
GGATACGCCCATATATACGGCCCATACCCAATCGTCCTTCCGGAGTCACCTAGTGCAG	8270 fluorescence intensity (a.u.)
TTTTTTTACATTTAATACTCCATGCATGTATCCAAACATTCGGAGTCACCTAGTGCAG	8280 fluorescence intensity (a.u.)
TGTGTCACTCTACTCTTTGGATTATCTTACCCCTGCTTAGCGGAGTCACCTAGTGCAG	8780 fluorescence intensity (a.u.)
ATGAACATCGATCCACTCCTAACAACCTTCGACAATTATTCGGAGTCACCTAGTGCAG	9420 fluorescence intensity (a.u.)
CATGTCTCGAGTTGTTGTAATGGCGTCTTGGTTTGTGCTTCGGAGTCACCTAGTGCAG	8050 fluorescence intensity (a.u.)
GTACTATGTATTGTCCCATCGTTGTATAGGTTGGTTTTTTCGGAGTCACCTAGTGCAG	8240 fluorescence intensity (a.u.)
TTCCAACCCCAATTCGACCGACTGCTACCATTGAGCCCAGCGGAGTCACCTAGTGCAG	9390 fluorescence intensity (a.u.)
GATAATAATTCACCTGTAACCCAACCATATGCGACCACTCCGGAGTCACCTAGTGCAG	9260 fluorescence intensity (a.u.)
ACTATTACTCCTCACTTCTTATAGTTTACTCTTGGTTAATCGGAGTCACCTAGTGCAG	10600 fluorescence intensity (a.u.)
GTGTACATTTGCAAACTTGACATAATTACTTCATGGACCTCGGAGTCACCTAGTGCAG	11200 fluorescence intensity (a.u.)
AGAAATTCAATATATTCTCAACCGTGTGTCCGTTTGACTCCGGAGTCACCTAGTGCAG	8880 fluorescence intensity (a.u.)
TGATGTCTCTCTTGTCTCCATTTGGCATGTTCTCATCCGGCGGAGTCACCTAGTGCAG	11100 fluorescence intensity (a.u.)
AAGATTCACCTGTTCCTTTCGCACCAAACTTCCCAACAGACGGAGTCACCTAGTGCAG	8730 fluorescence intensity (a.u.)

Sequence	binding signal
ATAAATTAAGATGATGAATGGGTGACAATCTTTTTTTTCTCGGAGTCACCTAGTGCAG	8100 fluorescence intensity (a.u.)
GTTCTCGCAAATTCCGAAGGCTTAGCCCAACTCAACATTTCGGAGTCACCTAGTGCAG	8700 fluorescence intensity (a.u.)
ATGACATGTCATGGGACTTACTTTACATGGTTTTGAATACCGGAGTCACCTAGTGCAG	8140 fluorescence intensity (a.u.)
CCATTTTTTCACACCCCAGCTACTGTTTAGGTCACCTGTCCGGAGTCACCTAGTGCAG	10100 fluorescence intensity (a.u.)
ACATGTGGGCCCCACATGTCAGTGGGCCCACATTCTTTTTCGGAGTCACCTAGTGCAG	8180 fluorescence intensity (a.u.)
TTTGAGGTCTTGTTTGTTTGGGTTTTACCTCCAATTCGGGCGGAGTCACCTAGTGCAG	9440 fluorescence intensity (a.u.)
GGGGAGGCGGGTGGGGTTGAGGAGGTCGGTGGCCTCGGCGCGGAGTCACCTAGTGCAG	12300 fluorescence intensity (a.u.)
ATCTGTACACCATCAGCCCATCTGTACTCATATCTGCATACGGAGTCACCTAGTGCAG	11100 fluorescence intensity (a.u.)
GAGGCTACCTAGACGTTATTTTGTTCCGCTGCTACGCCTTCGGAGTCACCTAGTGCAG	8070 fluorescence intensity (a.u.)
TTTGTTGCCGATTTGCTGCCGTGTTTGCTGCCGCGATTTGCGGAGTCACCTAGTGCAG	10800 fluorescence intensity (a.u.)
TAAATGATCTTTGCTGTGTTAATATTCTGTTCTTAATTTTCGGAGTCACCTAGTGCAG	9100 fluorescence intensity (a.u.)
TTTTTTTATATCAAACTTTTTAAATGTTTGACCAAGTTTACGGAGTCACCTAGTGCAG	8210 fluorescence intensity (a.u.)
CCAGCTTGTGATGTACCTAAGTTTTGTTAACATATGTCTGCGGAGTCACCTAGTGCAG	9310 fluorescence intensity (a.u.)
ATTGCGCGTCCTACACACTCGTACTGGAAGACTATTGGTGCGGAGTCACCTAGTGCAG	8830 fluorescence intensity (a.u.)
TCCTCTTCGCCGGCTGCCGCTCCTCTCCCCGCTCGTCTTTCGGAGTCACCTAGTGCAG	9440 fluorescence intensity (a.u.)
TTTTACTACCTCACCTCCCACTCTACTGCTACTCAACAATCGGAGTCACCTAGTGCAG	8410 fluorescence intensity (a.u.)
CTTCCTTCAGCCGCTTGCTCCTCGCTATCTGTCCCGGCTGCGGAGTCACCTAGTGCAG	9860 fluorescence intensity (a.u.)
TTAGGTCCAAATCACACAGATTTTAGATAGTTGGATTAGGCGGAGTCACCTAGTGCAG	9050 fluorescence intensity (a.u.)
GATCTCCTCAAGCGTTGGCATTCCCAAGTTGTTATCATTCCGGAGTCACCTAGTGCAG	9610 fluorescence intensity (a.u.)
GGGGCGGAGATCTGGGAGGAGGAGGAGGAGGTGGTGGTGGCGGAGTCACCTAGTGCAG	14500 fluorescence intensity (a.u.)
CCTGTTGCTGCTCTGTGCCTCTGCTCTGCTCCTTGACTTCCGGAGTCACCTAGTGCAG	11300 fluorescence intensity (a.u.)

Three entries from above in another layout.

| Sequence | binding signal |
| --- | --- |
| CGCGCTCGTCCCATCCCATGCCTGCGGCCGTGACCGCGAGCGGAGTCACCTAGTGCAG | 8970 fluorescence intensity (a.u.) |
| TGTGTCACTCTACTCTTTGGATTATCTTACCCCTGCTTAGCGGAGTCACCTAGTGCAG | 8780 fluorescence intensity (a.u.) |
| TGATGTCTCTCTTGTCTCCATTTGGCATGTTCTCATCCGGCGGAGTCACCTAGTGCAG | 11100 fluorescence intensity (a.u.) |

From publication PMC7819943, “Rice protein-binding microarrays: a tool to detect cis-acting elements near promoter regions in rice”
